Sequences of proteins named here, by UniProt entry; tags and fusion partners are left off.
UniProt Q99873: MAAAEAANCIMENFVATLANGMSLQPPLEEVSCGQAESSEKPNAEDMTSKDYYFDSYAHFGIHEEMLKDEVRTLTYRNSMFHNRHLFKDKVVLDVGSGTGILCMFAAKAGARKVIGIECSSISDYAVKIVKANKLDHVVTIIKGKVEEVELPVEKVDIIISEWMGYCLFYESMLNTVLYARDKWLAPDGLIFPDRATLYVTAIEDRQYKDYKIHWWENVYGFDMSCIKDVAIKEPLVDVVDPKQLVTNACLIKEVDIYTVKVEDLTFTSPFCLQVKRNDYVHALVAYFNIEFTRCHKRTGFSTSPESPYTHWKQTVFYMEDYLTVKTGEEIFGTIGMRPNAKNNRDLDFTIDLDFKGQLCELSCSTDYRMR
UniProt Q9NYF8: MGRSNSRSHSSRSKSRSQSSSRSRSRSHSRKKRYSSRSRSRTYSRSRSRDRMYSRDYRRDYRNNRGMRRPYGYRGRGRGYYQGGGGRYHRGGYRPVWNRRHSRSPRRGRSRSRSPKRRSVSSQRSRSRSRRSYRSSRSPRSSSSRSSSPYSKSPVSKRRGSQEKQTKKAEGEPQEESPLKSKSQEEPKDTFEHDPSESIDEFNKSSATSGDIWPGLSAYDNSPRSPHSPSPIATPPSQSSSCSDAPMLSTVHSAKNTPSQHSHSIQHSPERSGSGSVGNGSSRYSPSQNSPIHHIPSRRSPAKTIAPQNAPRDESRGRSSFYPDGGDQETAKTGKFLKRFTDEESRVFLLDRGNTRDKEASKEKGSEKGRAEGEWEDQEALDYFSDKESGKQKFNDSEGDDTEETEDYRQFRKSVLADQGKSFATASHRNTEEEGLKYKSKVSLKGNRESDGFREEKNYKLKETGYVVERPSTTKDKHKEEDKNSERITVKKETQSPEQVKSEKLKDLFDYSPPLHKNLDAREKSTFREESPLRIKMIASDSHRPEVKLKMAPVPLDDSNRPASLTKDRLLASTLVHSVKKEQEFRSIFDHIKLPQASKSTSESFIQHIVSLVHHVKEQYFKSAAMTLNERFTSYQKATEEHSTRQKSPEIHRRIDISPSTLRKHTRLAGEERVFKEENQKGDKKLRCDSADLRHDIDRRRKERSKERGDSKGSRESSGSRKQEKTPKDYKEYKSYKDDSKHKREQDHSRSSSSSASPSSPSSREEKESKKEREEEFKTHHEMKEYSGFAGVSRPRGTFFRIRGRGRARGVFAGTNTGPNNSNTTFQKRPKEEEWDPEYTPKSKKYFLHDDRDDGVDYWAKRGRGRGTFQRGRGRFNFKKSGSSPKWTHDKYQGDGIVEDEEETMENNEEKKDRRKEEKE

According to PMC8324870:

B1: THRAP3 (protein, UniProt Q9Y2W1 1-955)
chain: MSKTNKSKSGSRSSRSRSASRSRSRSFSKSRSRSRSLSRSRKRRLSSRSRSRSYSPAHNRERNHPRVYQNRDFRGHNRGYRRPYYFRGRNRGFYPWGQYNRGGYGNYRSNWQNYRQAYSPRRGRSRSRSPKRRSPSPRSRSHSRNSDKSSSDRSRRSSSSRSSSNHSRVESSKRKSAKEKKSSSKDSRPSQAAGDNQGDEAKEQTFSGGTSQDTKASESSKPWPDATYGTGSASRASAVSELSPRERSPALKSPLQSVVVRRRSPRPSPVPKPSPPLSSTSQMGSTLPSGAGYQSGTHQGQFDHGSGSLSPSKKSPVGKSPPSTGSTYGSSQKEESAASGGAAYTKRYLEEQKTENGKDKEQKQTNTDKEKIKEKGSFSDTGLGDGKMKSDSFAPKTDSEKPFRGSQSPKRYKLRDDFEKKMADFHKEEMDDQDKDKAKGRKESEFDDEPKFMSKVIGANKNQEEEKSGKWEGLVYAPPGKEKQRKTEELEEESFPERSKKEDRGKRSEGGHRGFVPEKNFRVTAYKAVQEKSSSPPPRKTSESRDKLGAKGDFPTGKSSFSITREAQVNVRMDSFDEDLARPSGLLAQERKLCRDLVHSNKKEQEFRSIFQHIQSAQSQRSPSELFAQHIVTIVHHVKEHHFGSSGMTLHERFTKYLKRGTEQEAAKNKKSPEIHRRIDISPSTFRKHGLAHDEMKSPREPGYKAEGKYKDDPVDLRLDIERRKKHKERDLKRGKSRESVDSRDSSHSRERSAEKTEKTHKGSKKQKKHRRARDRSRSSSSSSQSSHSYKAEEYTEETEEREESTTGFDKSRLGTKDFVGPSERGGGRARGTFQFRARGRGWGRGNYSGNNNNNSNNDFQKRNREEEWDPEYTPKSKKYYLHDDREGEGSDKWVSRGRGRGAFPRGRGRFMFRKSSTSPKWAHDKFSGEEGEIEDDESGTENREEKDNIQPTTE

Biological target: protein arginine methyltransferase 1 (PRMT1) (human (endogenous in PATC53)) (UniProt Q99873)
Assay: affinity purification with mass spectrometry; endogenous PRMT1 immunoprecipitated from PATC53 lysate (10 mM Tris-HCl pH 7.5, 150 mM NaCl, 1% Triton X-100, 5 mM EDTA) with anti-PRMT1 antibody on Protein A Dynabeads, 1 h at room temperature; IgG control; LC-MS/MS

| Molecule | binding |
| --- | --- |
| BCLAF1 (from UniProt Q9NYF8 1-920) | binds |
| B1 | binds |

These are yes or no findings as the source states them, for the method shown. Binding seen in cells or lysates may run through a third protein. These calls come from enrichment with a bait or labelling near it, and not all partners need be listed.
